Data as given in article PMC10844076.
These are yes or no findings as the source states them, for the method shown. In cells and extracts the contact can be indirect. Some results given as binding are weak or reduced against the parent protein; the word gives no strength. For some assays here: Where a sequence is shown, tags or fusion partners need not be part of it.

By UniProt entry, the sequences of proteins in these tests, tags left out.
UniProt P49327: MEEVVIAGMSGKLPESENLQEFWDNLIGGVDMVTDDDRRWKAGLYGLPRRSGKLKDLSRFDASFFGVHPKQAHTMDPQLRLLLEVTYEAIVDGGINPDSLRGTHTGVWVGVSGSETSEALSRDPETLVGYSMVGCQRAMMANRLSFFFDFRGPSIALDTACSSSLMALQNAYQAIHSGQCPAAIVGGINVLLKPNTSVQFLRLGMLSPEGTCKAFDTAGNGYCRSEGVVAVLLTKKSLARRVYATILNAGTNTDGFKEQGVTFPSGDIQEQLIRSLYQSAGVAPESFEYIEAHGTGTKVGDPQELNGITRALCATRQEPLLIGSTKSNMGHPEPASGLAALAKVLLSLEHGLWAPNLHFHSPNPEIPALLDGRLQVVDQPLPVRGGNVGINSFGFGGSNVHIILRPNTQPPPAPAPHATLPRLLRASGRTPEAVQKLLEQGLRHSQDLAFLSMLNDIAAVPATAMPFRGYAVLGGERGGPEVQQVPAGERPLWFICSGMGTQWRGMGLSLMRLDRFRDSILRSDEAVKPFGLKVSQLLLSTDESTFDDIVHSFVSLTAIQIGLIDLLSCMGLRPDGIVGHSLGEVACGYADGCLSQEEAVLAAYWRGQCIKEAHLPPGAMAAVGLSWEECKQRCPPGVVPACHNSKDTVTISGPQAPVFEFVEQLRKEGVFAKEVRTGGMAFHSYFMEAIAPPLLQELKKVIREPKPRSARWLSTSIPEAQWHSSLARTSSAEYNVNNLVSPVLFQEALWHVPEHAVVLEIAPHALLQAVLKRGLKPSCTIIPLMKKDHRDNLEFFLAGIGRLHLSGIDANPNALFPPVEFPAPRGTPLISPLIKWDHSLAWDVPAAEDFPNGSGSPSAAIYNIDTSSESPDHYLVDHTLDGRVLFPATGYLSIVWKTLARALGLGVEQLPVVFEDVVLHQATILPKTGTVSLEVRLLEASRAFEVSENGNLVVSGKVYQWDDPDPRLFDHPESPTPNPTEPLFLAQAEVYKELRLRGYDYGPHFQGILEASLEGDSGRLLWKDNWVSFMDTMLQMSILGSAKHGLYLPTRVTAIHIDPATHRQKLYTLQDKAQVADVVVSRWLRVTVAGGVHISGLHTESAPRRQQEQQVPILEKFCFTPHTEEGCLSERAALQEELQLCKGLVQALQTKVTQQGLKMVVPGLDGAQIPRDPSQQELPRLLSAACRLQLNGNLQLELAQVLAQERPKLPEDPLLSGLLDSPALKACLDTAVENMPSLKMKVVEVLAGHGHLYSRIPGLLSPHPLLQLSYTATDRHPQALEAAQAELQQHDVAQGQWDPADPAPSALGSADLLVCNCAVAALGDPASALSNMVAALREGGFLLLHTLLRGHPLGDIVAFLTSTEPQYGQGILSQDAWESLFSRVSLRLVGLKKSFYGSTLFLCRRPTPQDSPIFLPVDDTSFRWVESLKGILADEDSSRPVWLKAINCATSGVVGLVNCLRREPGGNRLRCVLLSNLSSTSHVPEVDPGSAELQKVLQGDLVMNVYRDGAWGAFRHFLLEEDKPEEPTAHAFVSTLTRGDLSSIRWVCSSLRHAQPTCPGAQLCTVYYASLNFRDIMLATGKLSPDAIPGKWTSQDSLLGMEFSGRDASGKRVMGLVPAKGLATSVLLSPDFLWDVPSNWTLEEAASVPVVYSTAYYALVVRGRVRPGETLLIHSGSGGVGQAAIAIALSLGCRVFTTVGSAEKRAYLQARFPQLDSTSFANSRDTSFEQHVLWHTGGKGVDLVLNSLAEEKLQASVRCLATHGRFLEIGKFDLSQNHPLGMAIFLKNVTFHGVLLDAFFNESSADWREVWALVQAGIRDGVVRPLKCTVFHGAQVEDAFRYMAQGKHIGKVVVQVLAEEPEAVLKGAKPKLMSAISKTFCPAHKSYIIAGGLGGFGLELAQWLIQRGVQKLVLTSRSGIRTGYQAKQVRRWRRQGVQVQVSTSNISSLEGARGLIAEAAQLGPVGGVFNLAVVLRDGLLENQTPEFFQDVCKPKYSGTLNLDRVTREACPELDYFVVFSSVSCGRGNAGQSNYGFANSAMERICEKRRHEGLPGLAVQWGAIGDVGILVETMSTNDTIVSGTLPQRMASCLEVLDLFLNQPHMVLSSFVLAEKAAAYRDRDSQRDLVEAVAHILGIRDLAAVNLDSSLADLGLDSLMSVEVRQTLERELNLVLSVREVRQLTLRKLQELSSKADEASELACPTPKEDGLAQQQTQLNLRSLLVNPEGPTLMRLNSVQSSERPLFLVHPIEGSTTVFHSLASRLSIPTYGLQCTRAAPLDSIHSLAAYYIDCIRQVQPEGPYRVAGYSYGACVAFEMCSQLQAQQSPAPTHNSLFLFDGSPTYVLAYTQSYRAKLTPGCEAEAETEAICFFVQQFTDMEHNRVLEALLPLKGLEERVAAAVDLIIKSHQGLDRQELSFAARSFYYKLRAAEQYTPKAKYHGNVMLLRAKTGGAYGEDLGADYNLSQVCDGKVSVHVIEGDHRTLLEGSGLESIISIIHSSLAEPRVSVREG

Assays:
Flag-FASN = Flag-FASN (UniProt P49327); experiment: co-IP; lysates of HEK293T cells expressing Flag-FASN and HA-ZDHHC21; anti-Flag or anti-HA magnetic beads; western blot
[1] = molecular target: FASN (human (endogenous in Toledo)) (UniProt P49327); experiment: co-IP; cellular extracts of Toledo cells incubated with anti-FASN or anti-ZDHHC21 antibodies; western blot; endogenous proteins

binding (Flag-FASN) | binding [1] | Binder
binds | – | HA-ZDHHC21 (enzyme, UniProt Q8IVQ6 1-265) MGLRIHFVVDPHGWCCMGLIVFVWLYNIVLIPKIVLFPHYEEGHIPGILIIIFYGISIFCLVALVRASITDPGRLPENPKIPHGEREFWELCNKCNLMRPKRSHHCSRCGHCVRRMDHHCPWINNCVGEDNHWLFLQLCFYTELLTCYALMFSFCHYYYFLPLKKRNLDLFVFRHELAIMRLAAFMGITMLVGITGLFYTQLIGIITDTTSIEKMSNCCEDISRPRKPWQQTFSEVFGTRWKILWFIPFRQRQPLRVPYHFANHV
– | binds | ZDHHC21 (enzyme, UniProt Q8IVQ6 1-265) MGLRIHFVVDPHGWCCMGLIVFVWLYNIVLIPKIVLFPHYEEGHIPGILIIIFYGISIFCLVALVRASITDPGRLPENPKIPHGEREFWELCNKCNLMRPKRSHHCSRCGHCVRRMDHHCPWINNCVGEDNHWLFLQLCFYTELLTCYALMFSFCHYYYFLPLKKRNLDLFVFRHELAIMRLAAFMGITMLVGITGLFYTQLIGIITDTTSIEKMSNCCEDISRPRKPWQQTFSEVFGTRWKILWFIPFRQRQPLRVPYHFANHV
